# Values of other authors, collected in patent publication US9849489B2, “Passive sampling devices” (priority 2015, dated 2017).
# At least one compound was matched to its structure with a doubt left.
# Settings: cited from earlier work
row,SMILES,log Kow
1,Cc1ccccc1OP(=O)(Oc1ccccc1C)Oc1ccccc1C [o-tricresylphosphate],6.34
2,Cc1ccc(OP(=O)(Oc2ccc(C)cc2)Oc2ccc(C)cc2)cc1 [p-tricresylphosphate],6.34
3,CC(=O)c1cc2c(cc1C)C(C)(C)C(C)CC2(C)C (stereo not drawn) [tonalide],5.70
